The results in this text go back to article PMC11445241.

Protein sequences, listed by entry. Tags and fused reporters are not part of them.
UniProt P04818: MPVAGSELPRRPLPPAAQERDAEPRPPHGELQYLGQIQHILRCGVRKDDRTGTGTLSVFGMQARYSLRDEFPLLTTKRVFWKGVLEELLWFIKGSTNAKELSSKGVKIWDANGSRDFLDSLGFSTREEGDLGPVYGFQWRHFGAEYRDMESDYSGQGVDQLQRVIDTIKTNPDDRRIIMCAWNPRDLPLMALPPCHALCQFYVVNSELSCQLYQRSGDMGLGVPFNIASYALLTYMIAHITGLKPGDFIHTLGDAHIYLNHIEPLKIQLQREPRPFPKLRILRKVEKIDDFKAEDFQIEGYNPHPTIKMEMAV
UniProt P53350: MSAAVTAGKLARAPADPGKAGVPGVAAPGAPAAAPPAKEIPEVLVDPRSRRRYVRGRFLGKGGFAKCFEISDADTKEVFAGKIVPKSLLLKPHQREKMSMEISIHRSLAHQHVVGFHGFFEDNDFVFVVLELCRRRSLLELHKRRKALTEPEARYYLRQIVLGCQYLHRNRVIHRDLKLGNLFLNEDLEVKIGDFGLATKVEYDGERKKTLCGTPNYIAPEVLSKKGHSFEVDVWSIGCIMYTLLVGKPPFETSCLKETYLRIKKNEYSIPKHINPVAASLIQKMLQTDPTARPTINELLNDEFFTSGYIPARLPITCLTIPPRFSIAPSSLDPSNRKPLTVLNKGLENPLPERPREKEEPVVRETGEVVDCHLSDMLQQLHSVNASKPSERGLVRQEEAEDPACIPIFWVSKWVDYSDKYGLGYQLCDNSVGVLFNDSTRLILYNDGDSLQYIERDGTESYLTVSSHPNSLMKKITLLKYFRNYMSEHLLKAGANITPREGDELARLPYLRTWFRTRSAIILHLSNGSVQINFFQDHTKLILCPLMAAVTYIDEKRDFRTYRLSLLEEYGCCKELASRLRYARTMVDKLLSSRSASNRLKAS

Assay [1] addresses Thymidylate synthase (TYMS) (human (endogenous in A875 and SK-MEL-110)) (UniProt P04818). Description: co-IP; endogenous proteins in A875 and SK-MEL-110 cells lysed in weak RIPA buffer; primary antibody 8 h, protein A/G-agarose overnight at 4 °C, three washes with PBS, Western blot. On the technique in general: Immunoblotting shows a protein as a band on a membrane.
The target of another assay is GST-TYMS (UniProt P04818). Description: pull-down; 2 mg GST-TYMS (or GST control) held on 50 μl glutathione agarose resin for 5 h at 4 °C and washed, then 2 mg myc-PLK1 protein overnight at 4 °C; washed, eluted, immunoblot; only the target purified.

These are yes or no findings as the source states them, for the method shown. Binding seen in cells or lysates may run through a third protein. Some binding calls cover weakened binding; strength is not graded here.

Consider “Polo-like Kinase 1 (PLK1) (from UniProt P53350 1-603)”, for which the binding result in assay [1] is on record as “binds”. On to myc-PLK1 (from UniProt P53350 1-603), for which the binding entry with GST-TYMS was “binds”.
